# Measured values as given in patent US20030096288A1 (Human Genome Sciences, published 2003).
# By UniProt entry, the sequences of proteins in these tests, tags left out. Where a name states a change or a piece, a line headed by the entry shows the natural chain unless it says otherwise.
# UniProt Q13546: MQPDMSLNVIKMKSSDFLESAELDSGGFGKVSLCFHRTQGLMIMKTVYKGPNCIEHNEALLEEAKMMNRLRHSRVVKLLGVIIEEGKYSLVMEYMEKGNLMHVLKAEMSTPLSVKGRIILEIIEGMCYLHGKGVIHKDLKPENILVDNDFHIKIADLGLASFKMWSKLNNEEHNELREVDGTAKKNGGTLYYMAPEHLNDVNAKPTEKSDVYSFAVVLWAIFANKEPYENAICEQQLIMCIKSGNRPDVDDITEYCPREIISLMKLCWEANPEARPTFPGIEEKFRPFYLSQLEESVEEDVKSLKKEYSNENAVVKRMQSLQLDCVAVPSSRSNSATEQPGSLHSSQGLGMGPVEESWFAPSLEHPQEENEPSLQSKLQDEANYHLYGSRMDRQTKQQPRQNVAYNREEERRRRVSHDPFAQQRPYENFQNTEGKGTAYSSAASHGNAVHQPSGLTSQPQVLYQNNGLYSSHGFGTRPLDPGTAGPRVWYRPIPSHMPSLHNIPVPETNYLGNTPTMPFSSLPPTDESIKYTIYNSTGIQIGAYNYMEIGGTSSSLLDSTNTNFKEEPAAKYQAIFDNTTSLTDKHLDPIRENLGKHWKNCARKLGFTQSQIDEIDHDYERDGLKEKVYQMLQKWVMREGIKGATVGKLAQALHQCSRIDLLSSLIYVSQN
# UniProt P78560: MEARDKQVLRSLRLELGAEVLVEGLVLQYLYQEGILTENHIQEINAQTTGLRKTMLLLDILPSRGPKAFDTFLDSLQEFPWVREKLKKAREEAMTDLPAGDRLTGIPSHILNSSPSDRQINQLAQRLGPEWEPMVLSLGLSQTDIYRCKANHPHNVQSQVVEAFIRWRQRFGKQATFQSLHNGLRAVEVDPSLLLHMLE
# Results are given in words; binding and its absence hold for the method and conditions named. Binding seen in cells or lysates may run through a third protein. Some results given as binding are weak or reduced against the parent protein; the word gives no strength. For some assays here: Sequences can lack the tags named with a protein.
# Tests used:
# [1] = molecular target: Myc-RIP (human) (UniProt Q13546); assay: co-immunoprecipitation from transfected 293 cells, anti-FLAG, anti-myc immunoblot
# [2] = molecular target: T1, FLAG-CED-3 (C. elegans) (UniProt P42573); assay: co-immunoprecipitation from cotransfected 293 cells, anti-FLAG
# T1 sequence (looked up): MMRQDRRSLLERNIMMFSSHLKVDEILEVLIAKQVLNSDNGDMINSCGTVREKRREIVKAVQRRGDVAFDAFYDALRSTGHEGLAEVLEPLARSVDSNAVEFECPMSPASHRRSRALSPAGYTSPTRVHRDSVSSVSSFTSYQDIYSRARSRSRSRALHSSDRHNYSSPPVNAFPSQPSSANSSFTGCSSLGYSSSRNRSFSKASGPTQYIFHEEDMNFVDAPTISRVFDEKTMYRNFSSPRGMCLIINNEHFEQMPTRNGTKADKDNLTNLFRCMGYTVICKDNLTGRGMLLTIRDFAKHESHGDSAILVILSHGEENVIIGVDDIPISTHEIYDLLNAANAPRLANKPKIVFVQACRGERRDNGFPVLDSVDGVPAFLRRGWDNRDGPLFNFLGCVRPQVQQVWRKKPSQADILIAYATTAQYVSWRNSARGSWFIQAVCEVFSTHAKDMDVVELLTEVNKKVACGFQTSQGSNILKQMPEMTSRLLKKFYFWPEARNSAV
Substance,binding [1],binding [2]
FLAG-RAIDD (from UniProt P78560 1-199),binds,–
AU1-RAIDD (from UniProt P78560 1-199),–,binds
